Assay results as given in the supplement of paper PMC5836539.
± gives the standard deviation of the averaged measurements. Single values are uncertain here, since repeats match poorly.

Sequences of proteins named here, by UniProt entry; tags and fusion partners are left off. A change or cut given only in a name is not applied to a line headed by its entry.
UniProt Q96EV2: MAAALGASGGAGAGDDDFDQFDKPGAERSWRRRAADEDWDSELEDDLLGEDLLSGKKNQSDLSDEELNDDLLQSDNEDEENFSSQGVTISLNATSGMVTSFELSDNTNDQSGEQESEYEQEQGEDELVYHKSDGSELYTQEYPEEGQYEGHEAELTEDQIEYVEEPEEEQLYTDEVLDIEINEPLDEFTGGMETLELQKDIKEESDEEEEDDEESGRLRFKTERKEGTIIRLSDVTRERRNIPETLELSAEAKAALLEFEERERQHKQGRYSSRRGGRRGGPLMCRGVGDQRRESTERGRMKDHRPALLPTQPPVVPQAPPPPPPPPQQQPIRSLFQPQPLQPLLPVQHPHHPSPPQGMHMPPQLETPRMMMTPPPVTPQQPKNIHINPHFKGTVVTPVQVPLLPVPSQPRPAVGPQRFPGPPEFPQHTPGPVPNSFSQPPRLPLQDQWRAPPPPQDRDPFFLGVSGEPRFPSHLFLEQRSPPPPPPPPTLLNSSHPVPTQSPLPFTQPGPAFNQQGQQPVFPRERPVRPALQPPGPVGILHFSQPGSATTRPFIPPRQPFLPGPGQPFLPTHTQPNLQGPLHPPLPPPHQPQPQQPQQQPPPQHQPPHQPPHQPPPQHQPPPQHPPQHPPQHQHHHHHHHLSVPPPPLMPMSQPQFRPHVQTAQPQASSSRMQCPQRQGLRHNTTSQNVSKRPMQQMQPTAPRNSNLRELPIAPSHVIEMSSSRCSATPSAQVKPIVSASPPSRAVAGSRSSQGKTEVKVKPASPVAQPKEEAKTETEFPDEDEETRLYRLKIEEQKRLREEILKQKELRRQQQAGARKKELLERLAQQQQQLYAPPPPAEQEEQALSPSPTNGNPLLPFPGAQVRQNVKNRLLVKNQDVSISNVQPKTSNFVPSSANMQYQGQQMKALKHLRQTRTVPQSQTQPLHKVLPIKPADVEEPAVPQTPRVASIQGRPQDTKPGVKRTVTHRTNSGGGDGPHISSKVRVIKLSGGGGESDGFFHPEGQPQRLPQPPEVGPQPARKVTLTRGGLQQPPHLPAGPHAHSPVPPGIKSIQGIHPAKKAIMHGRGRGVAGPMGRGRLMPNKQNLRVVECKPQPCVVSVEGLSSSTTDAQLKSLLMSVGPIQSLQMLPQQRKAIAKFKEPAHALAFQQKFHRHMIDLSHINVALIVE
UniProt P31949: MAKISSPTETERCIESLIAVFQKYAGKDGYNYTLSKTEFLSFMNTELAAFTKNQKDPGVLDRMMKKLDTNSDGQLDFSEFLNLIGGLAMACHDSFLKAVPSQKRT
UniProt Q9UQQ2: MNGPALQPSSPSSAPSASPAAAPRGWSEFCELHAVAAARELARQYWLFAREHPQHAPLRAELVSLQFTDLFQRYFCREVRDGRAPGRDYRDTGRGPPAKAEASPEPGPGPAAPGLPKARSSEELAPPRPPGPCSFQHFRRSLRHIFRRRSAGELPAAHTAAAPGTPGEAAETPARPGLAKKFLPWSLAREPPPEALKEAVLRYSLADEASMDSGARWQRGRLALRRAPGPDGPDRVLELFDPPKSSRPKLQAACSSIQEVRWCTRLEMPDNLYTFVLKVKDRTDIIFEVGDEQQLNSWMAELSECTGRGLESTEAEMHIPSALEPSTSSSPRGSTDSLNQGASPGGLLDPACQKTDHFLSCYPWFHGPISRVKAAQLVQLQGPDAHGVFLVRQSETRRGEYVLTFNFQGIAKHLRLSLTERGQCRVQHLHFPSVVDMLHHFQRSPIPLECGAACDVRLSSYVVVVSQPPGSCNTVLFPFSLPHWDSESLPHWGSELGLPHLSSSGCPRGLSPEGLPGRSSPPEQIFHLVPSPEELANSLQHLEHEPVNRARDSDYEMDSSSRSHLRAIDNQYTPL
UniProt P63208, whole entry: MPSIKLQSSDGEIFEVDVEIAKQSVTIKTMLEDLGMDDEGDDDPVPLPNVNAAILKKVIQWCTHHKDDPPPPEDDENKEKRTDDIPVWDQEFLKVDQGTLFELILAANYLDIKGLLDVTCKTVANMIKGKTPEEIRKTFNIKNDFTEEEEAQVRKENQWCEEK
UniProt P23497: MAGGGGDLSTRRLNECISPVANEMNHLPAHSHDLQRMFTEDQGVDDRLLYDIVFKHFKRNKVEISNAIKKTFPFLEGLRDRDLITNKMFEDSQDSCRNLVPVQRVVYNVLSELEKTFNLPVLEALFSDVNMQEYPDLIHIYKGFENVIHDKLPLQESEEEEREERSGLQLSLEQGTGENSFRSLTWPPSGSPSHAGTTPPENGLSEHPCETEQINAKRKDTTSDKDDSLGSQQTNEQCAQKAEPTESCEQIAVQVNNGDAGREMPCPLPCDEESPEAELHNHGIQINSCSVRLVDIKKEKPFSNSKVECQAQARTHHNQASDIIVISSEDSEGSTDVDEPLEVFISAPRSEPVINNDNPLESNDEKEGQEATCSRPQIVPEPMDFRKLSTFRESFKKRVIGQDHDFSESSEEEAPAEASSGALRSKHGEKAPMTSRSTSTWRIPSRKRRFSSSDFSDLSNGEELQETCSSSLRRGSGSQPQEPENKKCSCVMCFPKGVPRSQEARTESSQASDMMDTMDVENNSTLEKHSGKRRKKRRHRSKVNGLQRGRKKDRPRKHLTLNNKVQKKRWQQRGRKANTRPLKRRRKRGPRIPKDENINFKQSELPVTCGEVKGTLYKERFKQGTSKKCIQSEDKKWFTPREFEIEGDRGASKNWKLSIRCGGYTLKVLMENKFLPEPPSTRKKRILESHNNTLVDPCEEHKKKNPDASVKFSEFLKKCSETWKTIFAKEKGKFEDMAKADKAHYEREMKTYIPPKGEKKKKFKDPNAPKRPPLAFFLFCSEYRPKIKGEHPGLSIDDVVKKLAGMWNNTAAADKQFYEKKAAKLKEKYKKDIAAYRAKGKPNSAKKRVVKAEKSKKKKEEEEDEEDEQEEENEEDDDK
UniProt Q8IYB3: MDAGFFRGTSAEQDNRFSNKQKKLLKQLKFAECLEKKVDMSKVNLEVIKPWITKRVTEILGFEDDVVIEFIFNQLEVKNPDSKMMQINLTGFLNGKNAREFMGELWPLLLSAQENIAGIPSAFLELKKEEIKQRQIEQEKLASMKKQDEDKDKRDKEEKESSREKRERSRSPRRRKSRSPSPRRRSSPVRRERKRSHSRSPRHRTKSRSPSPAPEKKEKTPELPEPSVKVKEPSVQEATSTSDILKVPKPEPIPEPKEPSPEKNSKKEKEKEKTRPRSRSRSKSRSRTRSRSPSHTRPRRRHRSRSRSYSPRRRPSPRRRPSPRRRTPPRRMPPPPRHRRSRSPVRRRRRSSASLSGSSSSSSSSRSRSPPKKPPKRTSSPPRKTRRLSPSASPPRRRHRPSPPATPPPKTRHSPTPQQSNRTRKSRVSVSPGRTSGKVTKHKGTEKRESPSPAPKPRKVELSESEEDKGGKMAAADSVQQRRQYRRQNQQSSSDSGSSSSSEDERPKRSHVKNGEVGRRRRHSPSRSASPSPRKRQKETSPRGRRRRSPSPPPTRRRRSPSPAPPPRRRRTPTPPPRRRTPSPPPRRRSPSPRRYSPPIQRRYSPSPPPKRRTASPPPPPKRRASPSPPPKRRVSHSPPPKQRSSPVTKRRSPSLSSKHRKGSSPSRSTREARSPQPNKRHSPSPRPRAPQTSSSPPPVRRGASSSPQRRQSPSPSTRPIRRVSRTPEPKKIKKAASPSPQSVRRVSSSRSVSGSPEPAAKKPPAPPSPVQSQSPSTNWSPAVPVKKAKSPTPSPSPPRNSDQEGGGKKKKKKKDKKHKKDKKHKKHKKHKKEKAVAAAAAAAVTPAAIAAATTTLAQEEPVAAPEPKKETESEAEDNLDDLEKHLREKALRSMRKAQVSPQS
UniProt Q9UQ35: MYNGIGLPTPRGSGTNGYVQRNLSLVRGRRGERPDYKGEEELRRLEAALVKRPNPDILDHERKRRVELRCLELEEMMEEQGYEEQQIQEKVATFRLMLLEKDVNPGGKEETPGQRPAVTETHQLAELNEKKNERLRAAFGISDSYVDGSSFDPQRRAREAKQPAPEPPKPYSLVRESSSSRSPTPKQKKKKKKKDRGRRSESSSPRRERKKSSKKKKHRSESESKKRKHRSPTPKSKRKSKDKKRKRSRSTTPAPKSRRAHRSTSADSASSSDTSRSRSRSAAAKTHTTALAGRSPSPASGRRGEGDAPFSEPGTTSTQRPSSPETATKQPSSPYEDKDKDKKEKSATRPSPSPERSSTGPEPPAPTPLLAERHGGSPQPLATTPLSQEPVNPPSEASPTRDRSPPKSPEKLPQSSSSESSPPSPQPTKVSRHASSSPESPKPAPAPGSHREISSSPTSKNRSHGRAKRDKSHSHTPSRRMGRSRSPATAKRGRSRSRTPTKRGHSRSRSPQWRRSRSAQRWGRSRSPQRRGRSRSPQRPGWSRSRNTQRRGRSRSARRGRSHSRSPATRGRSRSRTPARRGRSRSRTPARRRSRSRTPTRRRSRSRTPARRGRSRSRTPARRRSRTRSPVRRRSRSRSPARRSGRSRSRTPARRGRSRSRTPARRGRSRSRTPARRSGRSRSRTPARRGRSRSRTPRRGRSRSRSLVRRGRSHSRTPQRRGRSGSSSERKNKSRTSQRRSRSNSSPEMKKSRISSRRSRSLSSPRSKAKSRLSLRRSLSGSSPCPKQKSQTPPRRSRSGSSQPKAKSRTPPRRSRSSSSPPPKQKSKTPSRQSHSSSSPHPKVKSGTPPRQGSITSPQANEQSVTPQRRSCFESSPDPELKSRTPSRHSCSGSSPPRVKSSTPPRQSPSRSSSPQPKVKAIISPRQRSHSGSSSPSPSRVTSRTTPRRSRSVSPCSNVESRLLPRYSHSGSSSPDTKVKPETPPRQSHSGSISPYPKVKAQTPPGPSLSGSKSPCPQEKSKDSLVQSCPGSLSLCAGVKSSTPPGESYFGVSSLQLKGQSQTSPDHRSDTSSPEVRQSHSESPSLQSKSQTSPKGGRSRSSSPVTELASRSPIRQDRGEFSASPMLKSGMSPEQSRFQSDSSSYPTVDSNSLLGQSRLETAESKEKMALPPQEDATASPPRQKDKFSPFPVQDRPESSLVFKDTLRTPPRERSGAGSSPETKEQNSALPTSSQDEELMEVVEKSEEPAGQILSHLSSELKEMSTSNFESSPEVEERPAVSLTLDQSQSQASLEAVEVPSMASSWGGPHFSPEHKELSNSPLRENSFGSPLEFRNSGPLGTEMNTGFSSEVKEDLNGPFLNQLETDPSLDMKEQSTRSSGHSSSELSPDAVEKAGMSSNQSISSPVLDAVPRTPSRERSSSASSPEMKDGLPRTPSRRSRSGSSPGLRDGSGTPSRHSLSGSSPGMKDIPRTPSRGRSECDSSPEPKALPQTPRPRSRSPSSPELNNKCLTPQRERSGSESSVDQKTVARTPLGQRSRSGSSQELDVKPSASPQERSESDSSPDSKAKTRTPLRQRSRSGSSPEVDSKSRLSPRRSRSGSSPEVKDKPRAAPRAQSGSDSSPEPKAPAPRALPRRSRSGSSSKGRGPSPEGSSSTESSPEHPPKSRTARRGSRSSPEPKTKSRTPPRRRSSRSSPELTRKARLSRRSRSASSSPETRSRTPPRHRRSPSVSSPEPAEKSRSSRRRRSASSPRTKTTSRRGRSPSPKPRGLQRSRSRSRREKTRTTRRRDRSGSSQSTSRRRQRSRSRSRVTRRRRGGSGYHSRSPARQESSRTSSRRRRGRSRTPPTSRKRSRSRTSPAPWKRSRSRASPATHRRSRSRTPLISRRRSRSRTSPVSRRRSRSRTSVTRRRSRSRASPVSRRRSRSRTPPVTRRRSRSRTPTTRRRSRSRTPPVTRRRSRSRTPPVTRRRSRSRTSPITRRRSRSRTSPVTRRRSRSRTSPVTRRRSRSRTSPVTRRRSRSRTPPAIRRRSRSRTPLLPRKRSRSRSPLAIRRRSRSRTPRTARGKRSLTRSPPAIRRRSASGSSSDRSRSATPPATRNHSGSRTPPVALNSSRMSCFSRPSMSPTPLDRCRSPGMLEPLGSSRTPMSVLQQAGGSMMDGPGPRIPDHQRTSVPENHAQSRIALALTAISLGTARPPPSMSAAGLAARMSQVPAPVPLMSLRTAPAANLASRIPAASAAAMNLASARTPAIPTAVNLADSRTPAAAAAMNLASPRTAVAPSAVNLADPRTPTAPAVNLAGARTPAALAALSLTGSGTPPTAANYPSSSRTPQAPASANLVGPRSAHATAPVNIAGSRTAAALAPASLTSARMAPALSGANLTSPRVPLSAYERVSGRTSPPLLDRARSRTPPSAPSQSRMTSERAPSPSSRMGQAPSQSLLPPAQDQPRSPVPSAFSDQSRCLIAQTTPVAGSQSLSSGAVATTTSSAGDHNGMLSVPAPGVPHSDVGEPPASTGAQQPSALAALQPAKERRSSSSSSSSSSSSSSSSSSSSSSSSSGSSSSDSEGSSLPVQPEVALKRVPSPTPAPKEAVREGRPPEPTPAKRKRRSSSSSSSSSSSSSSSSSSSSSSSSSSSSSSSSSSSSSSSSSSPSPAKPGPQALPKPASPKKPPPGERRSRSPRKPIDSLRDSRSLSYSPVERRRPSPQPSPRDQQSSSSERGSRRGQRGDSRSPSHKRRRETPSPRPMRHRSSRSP

compound: CC[C@@H](C)Nc1cc(C(=O)N[C@H]2C[C@H]3CC[C@@H](C2)N3c2ccc(C(=O)C3CC3)cn2)c(C)cc1C(N)=O [XL888]; experiment: phosphopeptide melting temperature shift (XL888 minus DMSO); higher = stabilised by drug treatment; conditions: 100 µM; treatment time 2 h; layout: intact cells; SK-Mel 24
Experimental: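 Phospho-TPP in intact SK-Mel 24 cells treated with 100 uM XL888 or DMSO for 2 h, heated at 10 temperatures (37-67 C) for 3 min, soluble fraction TMT10plex-labelled and TiO2 phospho-enriched. Melting curves were fitted per phosphopeptide; the value is the melting point difference (drug minus vehicle) in each of two biological replicates.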

| Target | phosphopeptide melting temperature shift [°C] |
| --- | --- |
| RBM6 phosphosite_891 (phosphosite position: 891) (UniProt P78332) | 0.239 |
| RBM27 phosphosite_120 (phosphosite position: 120) (UniProt Q9P2N5) | -0.0614 |
| RBM33 phosphosite_41 (phosphosite position: 41) (UniProt Q96EV2) | -2.18 |
| RBM33 phosphosite_765 (phosphosite position: 765) (UniProt Q96EV2) | 1.17 |
| RBMXL1 phosphosite_208 (phosphosite position: 208) (UniProt Q96E39) | 0.747 |
| RPLP2 phosphosite_102 (phosphosite position: 102) (UniProt P05387) | -0.828 |
| RPS2 phosphosite_281 (phosphosite position: 281) (UniProt P15880) | -2.06 ± 1.6 |
| RSL1D1 phosphosite_427 (phosphosite position: 427) (UniProt O76021) | 0.127 ± 0.59 |
| RSRC2 phosphosite_4 (phosphosite position: 4) (UniProt Q7L4I2) | 3.12 ± 3.6 |
| S100A11 phosphosite_6 (phosphosite position: 6) (UniProt P31949) | 2.86 |
| SASH1 phosphosite_407 (phosphosite position: 407) (UniProt O94885) | -0.733 |
| SH2B3 phosphosite_150 (phosphosite position: 150) (UniProt Q9UQQ2) | 3.36 |
| SH3BP1 phosphosite_550 (phosphosite position: 550) (UniProt Q9Y3L3) | 0.136 ± 0.41 |
| SKP1 phosphosite_131 (phosphosite position: 131) (UniProt P63208) | 2.93 |
| SLC4A1AP phosphosite_82 (phosphosite position: 82) (UniProt Q9BWU0) | -0.194 |
| SLC7A6OS phosphosite_168 (phosphosite position: 168) (UniProt Q96CW6) | 1.69 |
| SLU7 phosphosite_215 (phosphosite position: 215) (UniProt O95391) | 5.57 |
| SMARCC1 phosphosite_310 (phosphosite position: 310) (UniProt Q92922) | 0.455 ± 0.85 |
| SND1 phosphosite_426 (phosphosite position: 426) (UniProt Q7KZF4) | 0.844 |
| SORT1 phosphosite_825 (phosphosite position: 825) (UniProt Q99523) | -2.02 |
| SP100 phosphosite_157 (phosphosite position: 157) (UniProt P23497) | 1.45 ± 0.082 |
| SQSTM1 phosphosite_24 (phosphosite position: 24) (UniProt Q13501) | 1.1 ± 1.6 |
| SRRM1 phosphosite_463 (phosphosite position: 463) (UniProt Q8IYB3) | 1.79 |
| SRRM1 phosphosite_597 (phosphosite position: 597) (UniProt Q8IYB3) | 1.56 ± 1.4 |
| SRRM1 phosphosite_695 (phosphosite position: 695) (UniProt Q8IYB3) | -0.101 |
| SRRM2 phosphosite_323 (phosphosite position: 323) (UniProt Q9UQ35) | 3.54 |
| SRRM2 phosphosite_333 (phosphosite position: 333) (UniProt Q9UQ35) | 6.25 |
| SRRM2 phosphosite_353 (phosphosite position: 353) (UniProt Q9UQ35) | 0.27 |
| SRRM2 phosphosite_914 (phosphosite position: 914) (UniProt Q9UQ35) | 0.807 |

Already shown: entries from further up.

| Target | phosphopeptide melting temperature shift [°C] |
| --- | --- |
| SP100 phosphosite_157 (phosphosite position: 157) (UniProt P23497) | 1.45 ± 0.082 |
| SQSTM1 phosphosite_24 (phosphosite position: 24) (UniProt Q13501) | 1.1 ± 1.6 |
